Values joined by “and” are separate entries in the source; they are usually repeats but may differ in a detail not shown here. Identical values can stand only once. Counter-ions that a name gives are not always drawn. The list shows a part of the results. Single values are uncertain here, since repeats match poorly.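 HEK293T cells were given each compound shortly before transfection with a reporter in which red mCherry is followed by the SARS-CoV-2 frameshift element and then GFP in the −1 frame, so GFP appears only after frameshifting.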
Experiments:
[1] = tested on: SARS-CoV-2 -1 PRF reporter mCherry-FSE-GFP(-1); assay: mCherry (red) intensity as percent of control; higher = higher upstream reporter expression; conditions: 10 µM; 24 h; HEK293T
[2] = tested on: SARS-CoV-2 -1 PRF reporter mCherry-FSE-GFP(-1); assay: percent effect, decrease of GFP/mCherry ratio (-1 PRF reporter) relative to controls; higher = stronger frameshift inhibition; conditions: 10 µM; 24 h; HEK293T

SMILES: CCCCC[C@H](O)/C=C/[C@@H]1[C@H]2C/C(=C/CCCC(=O)O)O[C@H]2C[C@H]1O [epoprostenol]
- mCherry [1]: 103%
- percent effect [2]: -0.837%

SMILES: CC(=O)O[C@H]1C(=O)[C@@]2(C)[C@H]([C@H](OC(=O)c3ccccc3)[C@]3(O)C[C@H](OC(=O)[C@H](O)[C@@H](NC(=O)c4ccccc4)c4ccccc4)C(C)=C1C3(C)C)[C@]1(OC(C)=O)CO[C@@H]1C[C@@H]2O
- mCherry [1]: 28.6%
- percent effect [2]: -1.82%

SMILES: Cc1cnc(NC(=O)C2=C(O)c3ccccc3S(=O)(=O)N2C)s1 [Meloxicam]
- mCherry [1]: 104%
- percent effect [2]: -1.88%

SMILES: Cc1nnc(NS(=O)(=O)c2ccc(N)cc2)s1 [sulfamethizole]
- mCherry [1]: 110%
- percent effect [2]: -5.21%

SMILES: CC(=O)OCC(=O)[C@@]1(O)CC[C@H]2[C@@H]3CCC4=CC(=O)CC[C@]4(C)[C@H]3[C@@H](O)C[C@@]21C [Hydrocortisone 21-acetate]
- mCherry [1]: 155%
- percent effect [2]: 1.9%

SMILES: C[C@@H](O)[C@H]1C(=O)N2C(C(=O)O)=C(SCCNC=N)C[C@H]12 [Imipenem]
- mCherry [1]: 73.9%
- percent effect [2]: -0.712%

SMILES: NCCCC[C@H](NC(=O)[C@@H]1CCCN1C(=O)[C@@H]1CSSC[C@H](NC(=O)CNC(=O)CNC(=O)CN)C(=O)N[C@@H](Cc2ccc(O)cc2)C(=O)N[C@@H](Cc2ccccc2)C(=O)N[C@@H](CCC(N)=O)C(=O)N[C@@H](CC(N)=O)C(=O)N1)C(=O)NCC(N)=O [terlipressin]
- mCherry [1]: 107%
- percent effect [2]: -3.77%

SMILES: CC(=O)Nc1ncc([N+](=O)[O-])s1 [aminitrozole]
- mCherry [1]: 107%
- percent effect [2]: -1.1%

SMILES: O=C(O)CP(=O)(O)O [fosfonet]
- mCherry [1]: 80.4%
- percent effect [2]: -7.73%

SMILES: CO[C@H]1C(=O)[C@]2(C)[C@@H](OC)C[C@H]3OC[C@@]3(OC(C)=O)[C@H]2[C@H](OC(=O)c2ccccc2)[C@]2(O)C[C@H](OC(=O)[C@H](O)[C@@H](NC(=O)OC(C)(C)C)c3ccccc3)C(C)=C1C2(C)C [Jevtana]
- mCherry [1]: 76.1%
- percent effect [2]: -16.1%

SMILES: C[C@]1(Cn2ccnn2)[C@H](C(=O)O)N2C(=O)C[C@H]2S1(=O)=O [tazobactam]
- mCherry [1]: 97.3%
- percent effect [2]: -3.47%

SMILES: CC(S)C(=O)NCC(=O)O (stereo not drawn) [tiopronin]
- mCherry [1]: 99.3%
- percent effect [2]: -2.8%

SMILES: CCCCc1oc2ccccc2c1C(=O)c1cc(I)c(OCCN(CC)CC)c(I)c1 [amiodarone]
- mCherry [1]: 95.4% and 70.6%
- percent effect [2]: -0.722% and 2.68%

SMILES: CO/N=C1\C[C@]2(C[C@@H]3C[C@@H](C/C=C(\C)C[C@@H](C)/C=C/C=C4\CO[C@@H]5[C@H](O)C(C)=C[C@@H](C(=O)O3)[C@]45O)O2)O[C@H](/C(C)=C/C(C)C)[C@H]1C [moxidectin]
- mCherry [1]: 105%
- percent effect [2]: -1.87%

SMILES: N[C@@H]1CCCC[C@H]1N.O=C([O-])C(=O)[O-].[Pt+2] [Eloxatin]
- mCherry [1]: 104%
- percent effect [2]: -8.2%

SMILES: CCOC(=O)O[C@]1(C(=O)OCCl)CC[C@H]2[C@@H]3CCC4=CC(=O)C=C[C@]4(C)[C@H]3[C@@H](O)C[C@@]21C [Loteprednol]
- mCherry [1]: 96.8%
- percent effect [2]: -0.83%

SMILES: NCCCC[C@H](NC(=O)[C@@H](Cc1cc(Br)c(O)c(Br)c1)NC(=O)N1CCC(N2Cc3ccccc3NC2=O)CC1)C(=O)N1CCN(c2ccncc2)CC1 [olcegepant]
- mCherry [1]: 100%
- percent effect [2]: -0.139%

SMILES: COc1ccc(-n2c(C)c[nH]c2=O)cc1 [metazamide]
- mCherry [1]: 92.1%
- percent effect [2]: -6.69%

SMILES: CC1=C(C)C(=O)C(CCCCC#CCCCC#CCO)=C(C)C1=O [docebenone]
- mCherry [1]: 79.5%
- percent effect [2]: -0.418%

SMILES: Cc1cc(NC(=O)C2=C(O)c3ccccc3S(=O)(=O)N2C)no1 [isoxicam]
- mCherry [1]: 63.5%
- percent effect [2]: -3.14%

SMILES: COC(=O)N/N=C/c1c[n+]([O-])c2ccccc2[n+]1[O-]
- mCherry [1]: 112%
- percent effect [2]: -0.873%

SMILES: CC(=O)CCCCn1c(=O)c2c(ncn2C)n(C)c1=O [pentoxifylline]
- mCherry [1]: 83.5% and 72.8%
- percent effect [2]: -2.9% and -3.95%

SMILES: N[C@@H](Cc1ccccc1)C(=O)O [phenylalanine]
- mCherry [1]: 120%
- percent effect [2]: 1.07%

SMILES: O=C(Oc1cccc2cccnc12)c1ccccc1 [benzoxiquine]
- mCherry [1]: 105%
- percent effect [2]: -0.996%

SMILES: CC(C)Nc1cccnc1N1CCN(C(=O)c2cc3cc(NS(C)(=O)=O)ccc3[nH]2)CC1 [Delavirdine mesylate]
- mCherry [1]: 101%
- percent effect [2]: -4.87%

SMILES: COc1nc(N)nc2c1ncn2[C@@H]1O[C@H](CO)[C@@H](O)[C@@H]1O [Arranon]
- mCherry [1]: 110%
- percent effect [2]: 4.26%

SMILES: N[C@@H](CCC(=O)N[C@@H](CS)C(=O)NCC(=O)O)C(=O)O
- mCherry [1]: 129%
- percent effect [2]: 0.689%

SMILES: CC(C)(Oc1ccc(C2CCCc3ccccc32)cc1)C(=O)O (stereo not drawn) [nafenopin]
- mCherry [1]: 113%
- percent effect [2]: 2.68%

SMILES: C[C@H](Cc1ccc(O)c(O)c1)[C@@H](C)Cc1ccc(O)c(O)c1 [Actinex]
- mCherry [1]: 36.2%
- percent effect [2]: -5.17%

SMILES: C[C@H](O)[C@H](O)[C@H]1CNc2nc(N)[nH]c(=O)c2N1 [Sapropterin]
- mCherry [1]: 111%
- percent effect [2]: -7.31%

SMILES: C[C@H](CS)C(=O)N1CCC[C@H]1C(=O)O [captopril]
- mCherry [1]: 103% and 93.1%
- percent effect [2]: 0.369% and 1.99%

SMILES: C1CNCCN1
- mCherry [1]: 97.4%
- percent effect [2]: -3.6%

SMILES: CN/C(=N\CCSCc1nc[nH]c1C)NC#N [Cimetidine]
- mCherry [1]: 114% and 98.6%
- percent effect [2]: -4.39% and 2.25%

SMILES: CC(C)[C@H](N)C(=O)OCCOCn1cnc2c(=O)nc(N)[nH]c21 [Valaciclovir]
- mCherry [1]: 63.8%
- percent effect [2]: -7.23%

SMILES: CC(/C=C1\SC(=S)N(CC(=O)O)C1=O)=C\c1ccccc1 [epalrestat]
- mCherry [1]: 98.5%
- percent effect [2]: 0.295%

SMILES: CCn1cc(C(=O)O)c(=O)c2cc(F)c(N3CCNC(C)C3)c(F)c21 (stereo not drawn) [lomefloxacin]
- mCherry [1]: 107% and 105%
- percent effect [2]: -2.79% and 2.02%

SMILES: CCCCC(CC)COc1ccc(-c2nc(-c3ccc(OC)cc3)nc(-c3ccc(OCC(CC)CCCC)cc3O)n2)c(O)c1 (stereo not drawn) [bemotrizinol]
- mCherry [1]: 84.4%
- percent effect [2]: -6.69%

SMILES: NC[C@H]1CC[C@H](C(=O)O)CC1 [Tranexamic acid]
- mCherry [1]: 90%
- percent effect [2]: -1.73%

SMILES: CN(C)CCn1nnnc1SCC1=C(C(=O)O)N2C(=O)[C@@H](NC(=O)Cc3csc(N)n3)[C@H]2SC1 [Pansporin]
- mCherry [1]: 103%
- percent effect [2]: -3.56%

SMILES: Nc1nc(=O)c2nc(CNc3ccc(C(=O)N[C@@H](CCC(=O)O)C(=O)O)cc3)cnc2[nH]1 [folic acid]
- mCherry [1]: 76.5%
- percent effect [2]: -10.7%

SMILES: CCCC(C)(COC(N)=O)COC(=O)NC(C)C (stereo not drawn) [carisoprodol]
- mCherry [1]: 95.6% and 90%
- percent effect [2]: 1.45% and -1.95%

SMILES: CN1C(=O)C(N2CCCCC2)S/C1=C\C(=O)O (stereo not drawn) [ozolinone]
- mCherry [1]: 89.2%
- percent effect [2]: -5.41%

SMILES: CCCc1cc(C(N)=S)ccn1 [protionamide]
- mCherry [1]: 88% and 111%
- percent effect [2]: -1.79% and -13.2%

SMILES: Cc1cc2nc3c(=O)[nH]c(=O)nc-3n(C[C@H](O)[C@H](O)[C@H](O)CO)c2cc1C
- mCherry [1]: 91.6%
- percent effect [2]: -3.13%

SMILES: CC1(C)S[C@@H]2[C@H](N3C(=O)[C@@H](c4ccccc4)NC3(C)C)C(=O)N2[C@H]1C(=O)O
- mCherry [1]: 110%
- percent effect [2]: -0.488%

SMILES: O=C1/C(=C/c2cccs2)CCC/C1=C\c1cccs1
- mCherry [1]: 109%
- percent effect [2]: 1.3%

SMILES: C[C@@H]1C[C@H]2[C@@H]3C[C@H](F)C4=CC(=O)C=C[C@]4(C)[C@H]3[C@@H](O)C[C@]2(C)[C@@]1(O)C(=O)CO [paramethasone]
- mCherry [1]: 61.1%
- percent effect [2]: -2.24%

SMILES: CC1(C)O[C@@H]2C[C@H]3[C@@H]4C[C@H](F)C5=CC(=O)C=C[C@]5(C)[C@H]4[C@@H](O)C[C@]3(C)[C@]2(C(=O)CO)O1
- mCherry [1]: 89.8%
- percent effect [2]: -3.99%

SMILES: C=C(NC(=O)C(=C)NC(=O)c1csc(C2=NC3c4csc(n4)C4NC(=O)c5csc(n5)C(C(C)(O)C(C)O)NC(=O)C5CSC(=N5)/C(=C\C)NC(=O)C(C(C)O)NC(=O)c5csc(n5)C3(CC2)NC(=O)C(C)NC(=O)C(=C)NC(=O)C(C)NC(=O)C(C(C)CC)NC2C=Cc3c(C(C)O)cc(nc3C2O)C(=O)OC4C)n1)C(N)=O (stereo not drawn)
- mCherry [1]: 102%
- percent effect [2]: -4.07%

SMILES: CN(C)CC/C=C1\c2ccccc2CSc2ccccc21 [Dosulepin]
- mCherry [1]: 96.3%
- percent effect [2]: -0.102%

SMILES: Cc1ncc(C[n+]2csc(CCOP(=O)(O)O)c2C)c(N)n1 [monophosphothiamine]
- mCherry [1]: 59.5%
- percent effect [2]: -2.84%

SMILES: C[C@H]1[C@H](OC(=O)CCC(=O)O)O[C@@H]2O[C@@]3(C)CC[C@H]4[C@H](C)CC[C@@H]1[C@@]24OO3
- mCherry [1]: 16.1%
- percent effect [2]: 2.42%

SMILES: CN1C(C(=O)Nc2ccccn2)=C(O)c2sc(Cl)cc2S1(=O)=O [Lorcam]
- mCherry [1]: 103%
- percent effect [2]: -0.492%

SMILES: O=C(O)CSCC(=O)NC1CCSC1=O (stereo not drawn) [erdosteine]
- mCherry [1]: 108%
- percent effect [2]: 0.671%

SMILES: Cn1nnnc1SCC1=C(C(=O)O)N2C(=O)[C@@H](NC(=O)[C@H](OC=O)c3ccccc3)[C@H]2SC1
- mCherry [1]: 136%
- percent effect [2]: 0.947%

SMILES: CCOC(=O)C1=C[C@]2(CC)CCCN3CCc4c(n1c1ccccc41)[C@@H]32 [Vinpocetine]
- mCherry [1]: 86%
- percent effect [2]: -4.42%

SMILES: OC[C@H]1O[C@H](O[C@H]2[C@H](O)[C@@H](O)C(O)O[C@@H]2CO)[C@H](O)[C@@H](O)[C@@H]1O (stereo partly drawn)
- mCherry [1]: 108%
- percent effect [2]: -0.595%

SMILES: CCN(CC)CCCC(C)Nc1ccnc2cc(Cl)ccc12 (stereo not drawn) [chloroquine]
- mCherry [1]: 68%
- percent effect [2]: -3.04%

SMILES: C[S+](CC[C@H](N)C(=O)[O-])C[C@H]1O[C@@H](n2cnc3c(N)ncnc32)[C@H](O)[C@@H]1O (stereo partly drawn) [ademetionine]
- mCherry [1]: 95.7%
- percent effect [2]: 1.33%

SMILES: CCOc1ccc(NC(=O)CC(C)O)cc1 (stereo not drawn) [bucetin]
- mCherry [1]: 103%
- percent effect [2]: -0.514%

SMILES: O=C1NCN(c2ccccc2)C12CCN(CCCC(c1ccc(F)cc1)c1ccc(F)cc1)CC2 [fluspirilene]
- mCherry [1]: 104%
- percent effect [2]: -2.34%

SMILES: COc1cc([C@@H]2c3cc4c(cc3[C@@H](O[C@@H]3O[C@@H]5CO[C@@H](c6cccs6)O[C@H]5[C@H](O)[C@H]3O)[C@H]3COC(=O)[C@H]23)OCO4)cc(OC)c1O [Vumon]
- mCherry [1]: 137%
- percent effect [2]: 0.238%

SMILES: CCOC(=O)O[C@]1(C(=O)COC(=O)CC)CC[C@H]2[C@@H]3CCC4=CC(=O)C=C[C@]4(C)[C@H]3[C@@H](O)C[C@@]21C [prednicarbate]
- mCherry [1]: 74%
- percent effect [2]: 0.171%

SMILES: Cc1c(C)c2c(c(C)c1O)CCC(C)(COc1ccc(CC3SC(=O)NC3=O)cc1)O2 (stereo not drawn) [troglitazone]
- mCherry [1]: 92.4%
- percent effect [2]: -4.25%
